# Library screen at single concentrations

Protein sequences, listed by entry. Tags and fused reporters are not part of them.
UniProt P9WFT3, whole entry: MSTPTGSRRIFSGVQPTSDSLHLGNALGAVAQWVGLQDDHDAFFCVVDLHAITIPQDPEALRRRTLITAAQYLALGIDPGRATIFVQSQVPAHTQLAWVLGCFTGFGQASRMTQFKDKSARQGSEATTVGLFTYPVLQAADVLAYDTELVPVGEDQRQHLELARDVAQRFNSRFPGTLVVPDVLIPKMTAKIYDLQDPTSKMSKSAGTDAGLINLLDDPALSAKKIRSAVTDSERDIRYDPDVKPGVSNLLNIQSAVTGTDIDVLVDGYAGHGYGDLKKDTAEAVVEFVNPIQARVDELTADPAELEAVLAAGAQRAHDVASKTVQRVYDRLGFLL

The values are deposited in ChEMBL (CHEMBL3988442, “University of Dundee, Small-Polar-MMV Screening Library” (2021)).

Leishmania in macrophages: 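Cell assay of Leishmania donovani living inside macrophages; the read-out is not stated. Compounds at 30 µM. Higher reads as stronger inhibition (inferred: compounds with an IC50 in retests scored well above the rest). Size under these conditions: about 69,000 compounds, about 1,000 of them at 50% or above in at least one test.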
MtTrpRS: 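Tryptophan-tRNA ligase, Mycobacterium tuberculosis (UniProt P9WFT3). Enzyme assay of tryptophanyl-tRNA synthetase; the read-out is not stated. Tested at 10 µM. Higher most likely means stronger inhibition; the record gives no direction and few retests gave an IC50. About 65,000 compounds were tested under these conditions; 0.098% (about 64) showed 50% or more at least once.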
T. brucei: 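Whole-parasite assay of Trypanosoma brucei over 72 hours; the read-out is not stated. Concentration: 30 µM. Direction is inferred from retests: higher values go with stronger inhibition. Values scatter widely below zero; nearly all retest evidence comes from the higher of the two concentrations used. Size under these conditions: about 64,000 compounds, about 940 of them at 50% or above in at least one test.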

The filed quantity is “Percent Effect” (%). How 0% and 100% were set is not recorded. Most values in the screen are low, and negative values occur. The compounds are a random part of those screened. Two or more numbers in one place are separate tests of the same structure; such repeats can differ widely. A dash means the value is not listed here; it may have been measured.

Compound: Cn1nc2c(c1NC(=O)c1cccs1)CCC2
Leishmania in macrophages: -34.17%
MtTrpRS: -4.341%
T. brucei: -40.67%

Compound: CN(C)C(=O)CN1C[C@@H]2CC[C@H](C1)N(Cc1ccccc1OCCO)C2
MtTrpRS: 0.602%

Compound: COc1cccc(CN(C)Cc2nc3c(cnn3C)c(=O)[nH]2)c1OC
Leishmania in macrophages: -6.431%
MtTrpRS: -2.473%
T. brucei: 4.055%

Compound: O=C(Nc1ccc(-n2cccn2)cc1)N1C[C@H](O)[C@@H](N2CCOCC2)C1
Leishmania in macrophages: 16.05%
MtTrpRS: 1.586%
T. brucei: -4.038%

Compound: COCCN1C(=O)CC[C@]12CC[C@@H](NCc1cccc(C)n1)CC2
MtTrpRS: -2.607%

Compound: O=c1n(CCNCc2ccc3ccccc3c2)nc2ccccn12
Leishmania in macrophages: 24.32%
MtTrpRS: -2.323%
T. brucei: -46.51%

Compound: CC(C)=CCN1CCOC(Cn2nc(C)cc2C)C1 (stereo unspecified)
Leishmania in macrophages: 12.53%
MtTrpRS: -1.258%
T. brucei: -78.53%

Compound: O=C(CCc1nc(Cl)n[nH]1)N1C[C@@H](CN2CCCCCC2)[C@@H](CO)C1
Leishmania in macrophages: 21.36%
MtTrpRS: -2.794%
T. brucei: -3.992%

Compound: CN(Cc1cc(-c2ccccc2)no1)C1CCCN(c2cccnn2)C1 (stereo unspecified)
Leishmania in macrophages: 16.53%
MtTrpRS: 1.998%
T. brucei: 1.318%

Compound: Cc1cc(C(=O)N2C[C@@H](CN3CCCCC3)[C@@H](CO)C2)ccc1O
Leishmania in macrophages: 28.8%
MtTrpRS: -1.859%
T. brucei: 4.271%

Compound: CC1CCN(c2ncc3c(n2)CN(c2ccc4c(c2)OCO4)C3=O)CC1
Leishmania in macrophages: 20.87%
MtTrpRS: -2.403%
T. brucei: 2.307%

Compound: Cc1nn(C)c(C)c1C1CCCN1Cc1noc(C2CC2)n1 (stereo unspecified)
Leishmania in macrophages: 5.948%
MtTrpRS: 0.6823%
T. brucei: -26.44%

Compound: Cc1cccc(C(=O)NCc2ccc(CS(N)(=O)=O)cc2)n1
Leishmania in macrophages: 18.49%
MtTrpRS: 3.895%
T. brucei: 2.826%

Compound: CCn1/c(=N/C(=O)CSCC(=O)Nc2nccs2)sc2ccccc21
Leishmania in macrophages: -0.1482% and 13.57%
MtTrpRS: -4.787%
T. brucei: -3.188%

Compound: O=C1O[C@@H]2CN(c3ccc(Cl)cn3)C[C@@H]2N1CCc1ccc(F)cc1
MtTrpRS: 4.907%

Compound: Cc1ccc(C(=O)N2CCC[C@@H]2Cn2nnc3c(O)nc(C)nc32)cc1
Leishmania in macrophages: 14.72% and 9.063%
T. brucei: 5.804%

Compound: CCNC(=O)NC[C@H]1C[C@@H]2CCN1C[C@@H]2c1cc(-c2cccs2)nn1C
MtTrpRS: -4.043%

Compound: COc1cc(-c2cc(=O)[nH]cn2)cc(OC)c1OC
Leishmania in macrophages: 14.27% and 5.667%
T. brucei: -13.93%

Compound: Cc1cc(NC2CCC(=O)N(C)C2)n2nccc2n1 (stereo unspecified)
Leishmania in macrophages: 22.47%
MtTrpRS: -0.3661%
T. brucei: -50.41%

Compound: CC(c1ccc(S(C)(=O)=O)cc1)N(C)C(=O)c1ccccc1I (stereo unspecified)
Leishmania in macrophages: 12.26%
MtTrpRS: -3.971%
T. brucei: -22.76%

Compound: CN(CC(F)(F)F)C(=O)CNC(=O)N1CCC(N2CCCC2)C1 (stereo unspecified)
Leishmania in macrophages: -5.151%
MtTrpRS: 5.76%
T. brucei: -21.35%

Compound: NC(=O)N1CCC2(CCN(Cc3cccc(F)c3)CC2)CC1
MtTrpRS: -4.391%

Compound: Cc1noc2ncc(C(=O)NCC3CCOC3)cc12 (stereo unspecified)
Leishmania in macrophages: -0.3729%
MtTrpRS: -5.031%
T. brucei: -67.65%

Compound: Cc1nc(C2CCCN2C(=O)CCCOc2cccc(F)c2)no1 (stereo unspecified)
Leishmania in macrophages: 11.02%
MtTrpRS: -0.4421%
T. brucei: 1.182%

Compound: [H][C@@]12C[C@@H](C)O[C@]1([H])CN(S(=O)(=O)c1ccc(F)cc1)C2
Leishmania in macrophages: -6.393%
T. brucei: -18.89%

Compound: Cc1ccc(CN2CCC3(CC2)CC(N2CCN(C)CC2)CO3)s1 (stereo unspecified)
MtTrpRS: -0.1564%

Compound: Cc1occc1C(=O)N1CCc2ncnc(-c3cnn(C)c3)c2CC1
Leishmania in macrophages: 7.05%
MtTrpRS: -1.006%
T. brucei: -18.87%

Compound: CC(=O)N1N=C(c2ccco2)OC1C(=O)NCC(C)C (stereo unspecified)
Leishmania in macrophages: 8.06%
T. brucei: 15.99%

Compound: CC1c2ncc(CNC(=O)C3CC3)n2CCN1Cc1ccncc1.O=C(O)C(F)(F)F.O=C(O)C(F)(F)F (stereo unspecified)
Leishmania in macrophages: -12.68%
T. brucei: -14.67%

The first 3 entries again:

| Compound | Leishmania in macrophages | MtTrpRS | T. brucei |
|---|---|---|---|
| `Cn1nc2c(c1NC(=O)c1cccs1)CCC2` | -34.17% | -4.341% | -40.67% |
| `CN(C)C(=O)CN1C[C@@H]2CC[C@H](C1)N(Cc1ccccc1OCCO)C2` | - | 0.602% | - |
| `COc1cccc(CN(C)Cc2nc3c(cnn3C)c(=O)[nH]2)c1OC` | -6.431% | -2.473% | 4.055% |